The source of these data is paper PMC6148238.

Results are given in words; binding and its absence hold for the method and conditions named. In cells and extracts the contact can be indirect. Some binding calls cover weakened binding; strength is not graded here. For part of these data: Sequences can lack the tags named with a protein.

The target of assay [1] is T1, Rab3A (human (endogenous in Hep3B)) (UniProt P20336).
T1 sequence: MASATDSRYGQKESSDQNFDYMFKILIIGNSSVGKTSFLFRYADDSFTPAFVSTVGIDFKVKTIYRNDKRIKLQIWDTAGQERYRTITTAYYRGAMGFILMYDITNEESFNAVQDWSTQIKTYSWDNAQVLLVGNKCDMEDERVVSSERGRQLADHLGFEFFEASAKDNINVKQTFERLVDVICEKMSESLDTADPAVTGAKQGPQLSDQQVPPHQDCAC
Briefly: co-IP; endogenous proteins in Hep3B cells with or without OGT knockdown; Protein G IP Kit; Western blot. Background: Immunoblotting shows a protein as a band on a membrane.

The target of another assay is T2, Rab3A-flag (UniProt P20336).
T2 sequence: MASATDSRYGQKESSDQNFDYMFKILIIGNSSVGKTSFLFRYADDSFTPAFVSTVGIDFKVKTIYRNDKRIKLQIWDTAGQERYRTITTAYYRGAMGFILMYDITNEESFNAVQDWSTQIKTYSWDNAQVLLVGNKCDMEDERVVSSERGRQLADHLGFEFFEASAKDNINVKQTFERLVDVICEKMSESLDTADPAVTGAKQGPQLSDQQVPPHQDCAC
In words: co-IP; transfected OGT-myc and Rab3A-flag in Hep3B cells; Protein G IP Kit; Western blot.

Another assay deals with T3, GST-Rab3A (UniProt P20336).
T3 sequence: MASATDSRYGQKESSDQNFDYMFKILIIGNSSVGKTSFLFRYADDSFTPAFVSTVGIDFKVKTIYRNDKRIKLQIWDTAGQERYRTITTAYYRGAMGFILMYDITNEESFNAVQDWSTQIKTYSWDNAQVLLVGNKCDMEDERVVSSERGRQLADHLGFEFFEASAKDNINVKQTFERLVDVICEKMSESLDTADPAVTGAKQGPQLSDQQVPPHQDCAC
In words: pull-down; GST-Rab3A on beads (MagneGST pull-down system), [35S]Met-labelled in vitro translated OGT; SDS-PAGE and autoradiography; only the target purified.

B1: O-GlcNAc transferase (OGT) (enzyme, UniProt O15294 1-1046)
chain: MASSVGNVADSTEPTKRMLSFQGLAELAHREYQAGDFEAAERHCMQLWRQEPDNTGVLLLLSSIHFQCRRLDRSAHFSTLAIKQNPLLAEAYSNLGNVYKERGQLQEAIEHYRHALRLKPDFIDGYINLAAALVAAGDMEGAVQAYVSALQYNPDLYCVRSDLGNLLKALGRLEEAKACYLKAIETQPNFAVAWSNLGCVFNAQGEIWLAIHHFEKAVTLDPNFLDAYINLGNVLKEARIFDRAVAAYLRALSLSPNHAVVHGNLACVYYEQGLIDLAIDTYRRAIELQPHFPDAYCNLANALKEKGSVAEAEDCYNTALRLCPTHADSLNNLANIKREQGNIEEAVRLYRKALEVFPEFAAAHSNLASVLQQQGKLQEALMHYKEAIRISPTFADAYSNMGNTLKEMQDVQGALQCYTRAIQINPAFADAHSNLASIHKDSGNIPEAIASYRTALKLKPDFPDAYCNLAHCLQIVCDWTDYDERMKKLVSIVADQLEKNRLPSVHPHHSMLYPLSHGFRKAIAERHGNLCLDKINVLHKPPYEHPKDLKLSDGRLRVGYVSSDFGNHPTSHLMQSIPGMHNPDKFEVFCYALSPDDGTNFRVKVMAEANHFIDLSQIPCNGKAADRIHQDGIHILVNMNGYTKGARNELFALRPAPIQAMWLGYPGTSGALFMDYIITDQETSPAEVAEQYSEKLAYMPHTFFIGDHANMFPHLKKKAVIDFKSNGHIYDNRIVLNGIDLKAFLDSLPDVKIVKMKCPDGGDNADSSNTALNMPVIPMNTIAEAVIEMINRGQIQITINGFSISNGLATTQINNKAATGEEVPRTIIVTTRSQYGLPEDAIVYCNFNQLYKIDPSTLQMWANILKRVPNSVLWLLRFPAVGEPNIQQYAQNMGLPQNRIIFSPVAPKEEHVRRGQLADVCLDTPLCNGHTTGMDVLWAGTPMVTMPGETLASRVAASQLTCLGCLELIAKNRQEYEDIAVKLGTDLEYLKKVRGKVWKQRISSPLFNTKQYTMELERLYLQMWEHYAAGNKPDHMIKPVEVTESA
Take B1: in assay [1], the binding entry is on record as “binds”.

B2: OGT-myc (enzyme, UniProt O15294 1-1046)
chain: MASSVGNVADSTEPTKRMLSFQGLAELAHREYQAGDFEAAERHCMQLWRQEPDNTGVLLLLSSIHFQCRRLDRSAHFSTLAIKQNPLLAEAYSNLGNVYKERGQLQEAIEHYRHALRLKPDFIDGYINLAAALVAAGDMEGAVQAYVSALQYNPDLYCVRSDLGNLLKALGRLEEAKACYLKAIETQPNFAVAWSNLGCVFNAQGEIWLAIHHFEKAVTLDPNFLDAYINLGNVLKEARIFDRAVAAYLRALSLSPNHAVVHGNLACVYYEQGLIDLAIDTYRRAIELQPHFPDAYCNLANALKEKGSVAEAEDCYNTALRLCPTHADSLNNLANIKREQGNIEEAVRLYRKALEVFPEFAAAHSNLASVLQQQGKLQEALMHYKEAIRISPTFADAYSNMGNTLKEMQDVQGALQCYTRAIQINPAFADAHSNLASIHKDSGNIPEAIASYRTALKLKPDFPDAYCNLAHCLQIVCDWTDYDERMKKLVSIVADQLEKNRLPSVHPHHSMLYPLSHGFRKAIAERHGNLCLDKINVLHKPPYEHPKDLKLSDGRLRVGYVSSDFGNHPTSHLMQSIPGMHNPDKFEVFCYALSPDDGTNFRVKVMAEANHFIDLSQIPCNGKAADRIHQDGIHILVNMNGYTKGARNELFALRPAPIQAMWLGYPGTSGALFMDYIITDQETSPAEVAEQYSEKLAYMPHTFFIGDHANMFPHLKKKAVIDFKSNGHIYDNRIVLNGIDLKAFLDSLPDVKIVKMKCPDGGDNADSSNTALNMPVIPMNTIAEAVIEMINRGQIQITINGFSISNGLATTQINNKAATGEEVPRTIIVTTRSQYGLPEDAIVYCNFNQLYKIDPSTLQMWANILKRVPNSVLWLLRFPAVGEPNIQQYAQNMGLPQNRIIFSPVAPKEEHVRRGQLADVCLDTPLCNGHTTGMDVLWAGTPMVTMPGETLASRVAASQLTCLGCLELIAKNRQEYEDIAVKLGTDLEYLKKVRGKVWKQRISSPLFNTKQYTMELERLYLQMWEHYAAGNKPDHMIKPVEVTESA
As for B2, the binding result with Rab3A-flag is “binds”.

B3: OGT protein synthesized in TNT reaction (enzyme, UniProt O15294 1-1046)
chain: MASSVGNVADSTEPTKRMLSFQGLAELAHREYQAGDFEAAERHCMQLWRQEPDNTGVLLLLSSIHFQCRRLDRSAHFSTLAIKQNPLLAEAYSNLGNVYKERGQLQEAIEHYRHALRLKPDFIDGYINLAAALVAAGDMEGAVQAYVSALQYNPDLYCVRSDLGNLLKALGRLEEAKACYLKAIETQPNFAVAWSNLGCVFNAQGEIWLAIHHFEKAVTLDPNFLDAYINLGNVLKEARIFDRAVAAYLRALSLSPNHAVVHGNLACVYYEQGLIDLAIDTYRRAIELQPHFPDAYCNLANALKEKGSVAEAEDCYNTALRLCPTHADSLNNLANIKREQGNIEEAVRLYRKALEVFPEFAAAHSNLASVLQQQGKLQEALMHYKEAIRISPTFADAYSNMGNTLKEMQDVQGALQCYTRAIQINPAFADAHSNLASIHKDSGNIPEAIASYRTALKLKPDFPDAYCNLAHCLQIVCDWTDYDERMKKLVSIVADQLEKNRLPSVHPHHSMLYPLSHGFRKAIAERHGNLCLDKINVLHKPPYEHPKDLKLSDGRLRVGYVSSDFGNHPTSHLMQSIPGMHNPDKFEVFCYALSPDDGTNFRVKVMAEANHFIDLSQIPCNGKAADRIHQDGIHILVNMNGYTKGARNELFALRPAPIQAMWLGYPGTSGALFMDYIITDQETSPAEVAEQYSEKLAYMPHTFFIGDHANMFPHLKKKAVIDFKSNGHIYDNRIVLNGIDLKAFLDSLPDVKIVKMKCPDGGDNADSSNTALNMPVIPMNTIAEAVIEMINRGQIQITINGFSISNGLATTQINNKAATGEEVPRTIIVTTRSQYGLPEDAIVYCNFNQLYKIDPSTLQMWANILKRVPNSVLWLLRFPAVGEPNIQQYAQNMGLPQNRIIFSPVAPKEEHVRRGQLADVCLDTPLCNGHTTGMDVLWAGTPMVTMPGETLASRVAASQLTCLGCLELIAKNRQEYEDIAVKLGTDLEYLKKVRGKVWKQRISSPLFNTKQYTMELERLYLQMWEHYAAGNKPDHMIKPVEVTESA
modifications: [35S]methionine label
With B3, in the assay with GST-Rab3A, the binding result is reported as “binds”.
